Results are given in words; binding and its absence hold for the method and conditions named. In cells and extracts the contact can be indirect. Some results given as binding are weak or reduced against the parent protein; the word gives no strength. Tags and fused reporters may be left off the sequences shown.
Key:
Test in all cases: split reporter
[1] = target: T1, SnRK2.10-nLUC (Arabidopsis thaliana) (UniProt Q9C958)
T1 sequence: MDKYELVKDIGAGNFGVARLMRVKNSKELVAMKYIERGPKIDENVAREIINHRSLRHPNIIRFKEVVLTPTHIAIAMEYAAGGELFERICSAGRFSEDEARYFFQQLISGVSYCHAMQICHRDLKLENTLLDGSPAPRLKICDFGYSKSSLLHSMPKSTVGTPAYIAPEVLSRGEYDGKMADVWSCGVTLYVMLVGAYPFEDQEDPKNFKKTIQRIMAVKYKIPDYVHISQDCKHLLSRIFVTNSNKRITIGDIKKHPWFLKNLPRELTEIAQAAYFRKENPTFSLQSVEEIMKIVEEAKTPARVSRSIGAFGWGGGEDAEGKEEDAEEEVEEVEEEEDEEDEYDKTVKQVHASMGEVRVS

[2] = target: T2, SnRK2.3-nLUC (Arabidopsis thaliana) (UniProt Q39193)
T2 sequence: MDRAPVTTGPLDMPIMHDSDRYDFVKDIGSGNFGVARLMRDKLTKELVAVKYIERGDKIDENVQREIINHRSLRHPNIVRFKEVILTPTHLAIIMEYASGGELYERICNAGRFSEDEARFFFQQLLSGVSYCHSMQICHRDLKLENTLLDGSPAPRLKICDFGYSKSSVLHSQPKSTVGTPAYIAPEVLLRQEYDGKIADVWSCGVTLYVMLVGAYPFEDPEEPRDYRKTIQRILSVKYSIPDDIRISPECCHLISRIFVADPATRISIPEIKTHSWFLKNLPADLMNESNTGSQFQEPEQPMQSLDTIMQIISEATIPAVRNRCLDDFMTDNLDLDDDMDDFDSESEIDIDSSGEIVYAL

[3] = target: T3, SnRK2.4-nLUC (Arabidopsis thaliana) (UniProt P43291)
T3 sequence: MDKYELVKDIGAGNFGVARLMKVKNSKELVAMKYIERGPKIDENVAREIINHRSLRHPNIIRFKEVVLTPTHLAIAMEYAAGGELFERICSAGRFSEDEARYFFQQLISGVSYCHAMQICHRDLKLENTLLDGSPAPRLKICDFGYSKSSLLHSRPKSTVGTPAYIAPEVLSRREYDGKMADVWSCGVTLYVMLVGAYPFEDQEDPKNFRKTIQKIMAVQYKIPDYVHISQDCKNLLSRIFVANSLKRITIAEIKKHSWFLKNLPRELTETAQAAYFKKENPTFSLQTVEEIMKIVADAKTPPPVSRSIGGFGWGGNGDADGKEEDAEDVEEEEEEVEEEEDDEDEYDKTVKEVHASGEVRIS

[4] = target: T4, SnRK2.6-nLUC (Arabidopsis thaliana) (UniProt Q940H6)
T4 sequence: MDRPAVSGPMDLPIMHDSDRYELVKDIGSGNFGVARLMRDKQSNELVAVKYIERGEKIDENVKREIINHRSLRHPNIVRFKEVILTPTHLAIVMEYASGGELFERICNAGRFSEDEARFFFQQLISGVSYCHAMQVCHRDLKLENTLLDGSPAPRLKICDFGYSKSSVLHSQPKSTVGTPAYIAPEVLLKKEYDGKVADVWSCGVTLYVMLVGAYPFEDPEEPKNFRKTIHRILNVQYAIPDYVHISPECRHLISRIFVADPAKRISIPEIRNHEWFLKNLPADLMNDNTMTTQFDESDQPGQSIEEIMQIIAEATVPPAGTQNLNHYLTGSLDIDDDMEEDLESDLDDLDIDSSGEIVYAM

[5] = target: T5, SnRK2.7-nLUC (Arabidopsis thaliana) (UniProt Q9SMQ4)
T5 sequence: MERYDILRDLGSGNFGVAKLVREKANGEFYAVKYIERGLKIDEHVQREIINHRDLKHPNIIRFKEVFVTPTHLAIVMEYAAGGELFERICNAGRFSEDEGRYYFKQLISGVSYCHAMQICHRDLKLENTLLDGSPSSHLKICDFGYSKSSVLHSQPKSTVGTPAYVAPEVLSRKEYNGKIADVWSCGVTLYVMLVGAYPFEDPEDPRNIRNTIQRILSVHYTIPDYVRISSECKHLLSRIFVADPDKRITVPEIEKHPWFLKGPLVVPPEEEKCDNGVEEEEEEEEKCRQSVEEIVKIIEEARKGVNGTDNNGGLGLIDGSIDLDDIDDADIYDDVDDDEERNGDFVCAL

[6] = target: T6, SnRK2.8-nLUC (Arabidopsis thaliana) (UniProt Q9M9E9)
T6 sequence: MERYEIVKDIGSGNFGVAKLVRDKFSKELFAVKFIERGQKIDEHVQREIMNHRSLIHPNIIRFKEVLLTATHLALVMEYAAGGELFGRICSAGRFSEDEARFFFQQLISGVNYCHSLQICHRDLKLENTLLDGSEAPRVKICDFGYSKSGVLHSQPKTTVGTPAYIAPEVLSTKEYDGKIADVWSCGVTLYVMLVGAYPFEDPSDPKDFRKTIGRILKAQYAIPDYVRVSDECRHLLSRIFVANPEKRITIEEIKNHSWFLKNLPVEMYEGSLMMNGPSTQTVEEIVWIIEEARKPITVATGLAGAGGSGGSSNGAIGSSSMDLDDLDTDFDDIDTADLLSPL

- binding [1]: binds
- binding [2]: binds weakly
- binding [3]: binds
- binding [4]: binds weakly
- binding [5]: binds
- binding [6]: binds
B1: SIZ1-cLUC (enzyme, UniProt Q680Q4-3 1-873)
chain: MDLEANCKEKLSYFRIKELKDVLTQLGLSKQGKKQELVDRILTLLSDEQAARLLSKKNTVAKEAVAKLVDDTYRKMQVSGASDLASKGQVSSDTSNLKVKGEPEDPFQPEIKVRCVCGNSLETDSMIQCEDPRCHVWQHVGCVILPDKPMDGNPPLPESFYCEICRLTRADPFWVTVAHPLSPVRLTATTIPNDGASTMQSVERTFQITRADKDLLAKPEYDVQAWCMLLNDKVLFRMQWPQYADLQVNGVPVRAINRPGGQLLGVNGRDDGPIITSCIRDGVNRISLSGGDVRIFCFGVRLVKRRTLQQVLNLIPEEGKGETFEDALARVRRCIGGGGGDDNADSDSDIEVVADFFGVNLRCPMSGSRIKVAGRFLPCVHMGCFDLDVFVELNQRSRKWQCPICLKNYSVEHVIVDPYFNRITSKMKHCDEEVTEIEVKPDGSWRVKFKRESERRELGELSQWHAPDGSLCPSAVDIKRKMEMLPVKQEGYSDGPAPLKLGIRKNRNGIWEVSKPNTNGLSSSNRQEKVGYQEKNIIPMSSSATGSGRDGDDASVNQDAIGTFDFVANGMELDSISMNVDSGYNFPDRNQSGEGGNNEVIVLSDSDDENDLVITPGPAYSGCQTDGGLTFPLNPPGIINSYNEDPHSIAGGSSGLGLFNDDDEFDTPLWSFPSETPEAPGFQLFRSDADVSGGLVGLHHHSPLNCSPEINGGYTMAPETSMASVPVVPGSTGRSEANDGLVDNPLAFGRDDPSLQIFLPTKPDASAQSGFKNQADMSNGLRSEDWISLRLGDSASGNHGDPATTNGINSSHQMSTREGSMDTTTETASLLLGMNDSRQDKAKKQRSDNPFSFPRQKRSVRPRMYLSIDSDSE

— article doi:10.1101/2023.04.25.538284 (bioRxiv, 2023)
